One molecule from publication PMC11286954 can be followed below.

By UniProt entry, the sequences of proteins in these tests, tags left out.
UniProt Q93008: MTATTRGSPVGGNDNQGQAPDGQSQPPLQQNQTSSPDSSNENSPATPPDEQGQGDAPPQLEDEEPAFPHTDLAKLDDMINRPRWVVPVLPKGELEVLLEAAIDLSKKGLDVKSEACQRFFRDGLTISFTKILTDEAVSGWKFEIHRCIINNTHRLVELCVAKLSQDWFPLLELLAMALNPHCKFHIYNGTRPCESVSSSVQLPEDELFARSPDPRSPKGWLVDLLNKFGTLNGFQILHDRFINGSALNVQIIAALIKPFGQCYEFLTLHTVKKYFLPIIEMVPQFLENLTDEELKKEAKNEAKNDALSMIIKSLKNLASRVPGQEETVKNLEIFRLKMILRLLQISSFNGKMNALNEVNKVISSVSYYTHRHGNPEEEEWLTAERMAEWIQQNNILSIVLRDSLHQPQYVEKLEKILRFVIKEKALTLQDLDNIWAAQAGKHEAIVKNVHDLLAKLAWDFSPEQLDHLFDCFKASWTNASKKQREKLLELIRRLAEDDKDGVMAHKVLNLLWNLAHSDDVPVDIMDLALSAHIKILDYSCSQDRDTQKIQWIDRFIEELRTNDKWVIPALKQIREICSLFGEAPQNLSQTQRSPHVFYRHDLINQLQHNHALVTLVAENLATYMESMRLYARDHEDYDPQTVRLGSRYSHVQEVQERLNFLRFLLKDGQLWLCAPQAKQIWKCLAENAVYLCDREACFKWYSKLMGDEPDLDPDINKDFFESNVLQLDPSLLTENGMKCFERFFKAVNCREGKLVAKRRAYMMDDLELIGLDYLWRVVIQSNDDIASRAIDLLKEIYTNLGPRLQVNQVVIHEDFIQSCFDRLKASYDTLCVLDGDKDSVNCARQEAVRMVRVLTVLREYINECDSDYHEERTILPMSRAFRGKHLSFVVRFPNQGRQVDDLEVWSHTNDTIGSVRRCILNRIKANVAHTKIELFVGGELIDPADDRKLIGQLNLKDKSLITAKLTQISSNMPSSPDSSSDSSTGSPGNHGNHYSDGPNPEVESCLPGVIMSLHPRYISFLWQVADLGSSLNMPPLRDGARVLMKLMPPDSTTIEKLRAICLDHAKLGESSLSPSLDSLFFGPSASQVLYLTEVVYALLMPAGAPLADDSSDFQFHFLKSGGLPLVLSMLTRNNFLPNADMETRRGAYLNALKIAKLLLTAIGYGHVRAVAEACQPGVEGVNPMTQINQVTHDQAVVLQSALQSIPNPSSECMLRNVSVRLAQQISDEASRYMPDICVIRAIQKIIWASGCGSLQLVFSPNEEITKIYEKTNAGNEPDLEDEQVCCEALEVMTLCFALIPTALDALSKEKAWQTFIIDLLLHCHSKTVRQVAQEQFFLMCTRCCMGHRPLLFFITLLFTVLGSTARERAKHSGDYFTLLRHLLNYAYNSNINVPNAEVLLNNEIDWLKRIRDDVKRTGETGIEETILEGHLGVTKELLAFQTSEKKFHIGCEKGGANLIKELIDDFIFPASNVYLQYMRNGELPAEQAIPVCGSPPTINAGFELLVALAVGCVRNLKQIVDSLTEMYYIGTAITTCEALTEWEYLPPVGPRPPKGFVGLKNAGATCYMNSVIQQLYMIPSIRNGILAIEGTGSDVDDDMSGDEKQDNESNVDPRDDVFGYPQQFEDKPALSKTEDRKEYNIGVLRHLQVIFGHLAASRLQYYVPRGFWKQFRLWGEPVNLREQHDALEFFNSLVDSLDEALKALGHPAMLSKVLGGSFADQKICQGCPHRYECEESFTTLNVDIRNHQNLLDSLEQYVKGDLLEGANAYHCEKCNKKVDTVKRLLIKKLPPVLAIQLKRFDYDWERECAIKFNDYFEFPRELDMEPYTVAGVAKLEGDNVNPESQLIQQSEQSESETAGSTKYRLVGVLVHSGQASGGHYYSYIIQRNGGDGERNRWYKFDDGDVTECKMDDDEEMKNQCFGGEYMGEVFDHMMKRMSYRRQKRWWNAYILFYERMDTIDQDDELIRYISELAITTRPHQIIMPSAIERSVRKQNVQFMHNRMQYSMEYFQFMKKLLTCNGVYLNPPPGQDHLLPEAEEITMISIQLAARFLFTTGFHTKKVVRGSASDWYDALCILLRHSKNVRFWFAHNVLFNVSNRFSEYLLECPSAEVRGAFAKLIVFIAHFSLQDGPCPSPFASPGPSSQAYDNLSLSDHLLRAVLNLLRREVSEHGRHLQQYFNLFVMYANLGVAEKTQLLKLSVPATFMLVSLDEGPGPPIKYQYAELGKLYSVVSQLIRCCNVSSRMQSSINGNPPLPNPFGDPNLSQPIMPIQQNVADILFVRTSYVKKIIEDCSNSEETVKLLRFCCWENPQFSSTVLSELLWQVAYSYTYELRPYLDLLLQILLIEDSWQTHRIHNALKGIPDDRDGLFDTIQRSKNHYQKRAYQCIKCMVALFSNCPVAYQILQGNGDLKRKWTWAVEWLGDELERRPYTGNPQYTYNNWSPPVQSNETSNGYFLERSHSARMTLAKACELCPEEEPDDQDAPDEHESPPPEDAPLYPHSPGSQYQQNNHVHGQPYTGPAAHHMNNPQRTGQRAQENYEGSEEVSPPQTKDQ

These are yes or no findings as the source states them, for the method shown. In cells and extracts the contact can be indirect. Some binding calls cover weakened binding; strength is not graded here.

In this assay the target is ubiquitin-specific peptidase 9 X-linked (USP9x) (human (endogenous in NCI-H1975)) (UniProt Q93008). Nature of the assay: co-IP; USP9x antibody on Protein A/G magnetic beads, incubated overnight with NCI-H1975 lysate; 10% of the beads used for immunoblotting; normal rabbit IgG as control. (A western blot detects proteins with antibodies after separation by electrophoresis.)

B1: pyrroline-5-carboxylate reductase 3 (PYCR3) (enzyme, UniProt Q53H96 1-274)
chain: MAAAEPSPRRVGFVGAGRMAGAIAQGLIRAGKVEAQHILASAPTDRNLCHFQALGCRTTHSNQEVLQSCLLVIFATKPHVLPAVLAEVAPVVTTEHILVSVAAGVSLSTLEELLPPNTRVLRVLPNLPCVVQEGAIVMARGRHVGSSETKLLQHLLEACGRCEEVPEAYVDIHTGLSGSGVAFVCAFSEALAEGAVKMGMPSSLAHRIAAQTLLGTAKMLLHEGQHPAQLRSDVCTPGGTTIYGLHALEQGGLRAATMSAVEAATCRAKELSRK
As for B1, the binding entry is recorded as “binds”.
